The values below come from article PMC12155224, “Rare missense variants of the leukocyte common antigen related receptor (LAR) display reduced activity in transcellular adhesion and synapse formation” (Research Square, 2025).

These are yes or no findings as the source states them, for the method shown. Some results given as binding are weak or reduced against the parent protein; the word gives no strength. Sequences can lack the tags named with a protein.

The test addresses T1, LAR FN1–4 P381S (human) (UniProt P10586).
T1 sequence (chain, RED-tris-NTA 2nd generation dye on the His tag): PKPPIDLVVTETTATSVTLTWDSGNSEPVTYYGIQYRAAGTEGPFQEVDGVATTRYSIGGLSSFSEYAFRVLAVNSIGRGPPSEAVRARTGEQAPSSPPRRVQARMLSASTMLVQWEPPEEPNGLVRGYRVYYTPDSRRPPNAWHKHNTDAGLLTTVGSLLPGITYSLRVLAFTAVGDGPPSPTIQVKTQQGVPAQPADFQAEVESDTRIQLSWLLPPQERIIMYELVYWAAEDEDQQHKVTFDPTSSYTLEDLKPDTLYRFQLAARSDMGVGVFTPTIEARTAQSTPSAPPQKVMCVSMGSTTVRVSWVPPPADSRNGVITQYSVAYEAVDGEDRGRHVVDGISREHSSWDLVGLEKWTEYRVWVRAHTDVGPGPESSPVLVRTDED
The test is described as follows: MST; His-tagged LAR FN1–4 labelled with RED-tris-NTA, 100 nM; NGL-3 in 1:1 dilution series; 25 mM HEPES pH 7.5, 150 mM NaCl, 0.005 % Tween20; 1 h at RT; Monolith NT.115, medium MST power; MST on time 2.5 s; 1:1 KD model; both purified.

B1: NGL-3 ECD (extracellular domain of Netrin-G ligand 3, Fc cleaved off) (domain or fragment, UniProt Q9NT99 36-576)
chain: AGGGGVAVTSAAGGGSPPATSCPVACSCSNQASRVICTRRDLAEVPASIPVNTRYLNLQENGIQVIRTDTFKHLRHLEILQLSKNLVRKIEVGAFNGLPSLNTLELFDNRLTTVPTQAFEYLSKLRELWLRNNPIESIPSYAFNRVPSLRRLDLGELKRLEYISEAAFEGLVNLRYLNLGMCNLKDIPNLTALVRLEELELSGNRLDLIRPGSFQGLTSLRKLWLMHAQVATIERNAFDDLKSLEELNLSHNNLMSLPHDLFTPLHRLERVHLNHNPWHCNCDVLWLSWWLKETVPSNTTCCARCHAPAGLKGRYIGELDQSHFTCYAPVIVEPPTDLNVTEGMAAELKCRTGTSMTSVNWLTPNGTLMTHGSYRVRISVLHDGTLNFTNVTVQDTGQYTCMVTNSAGNTTASATLNVSAVDPVAAGGTGSGGGGPGGSGGVGGGSGGYTYFTTVTVETLETQPGEEALQPRGTEKEPPGPTTDGVWGGGRPGDAAGPASSSTTAPAPRSSRPTEKAFTVPITDVTENALKDLDDVMKTTK
Turning to B1, the binding result is “binds”.
